PMC7819943, “Rice protein-binding microarrays: a tool to detect cis-acting elements near promoter regions in rice”
This is one part of the list.

Chains of the proteins cited; added tags and fusions are not shown.
UniProt Q0JBA9, entry or part of it: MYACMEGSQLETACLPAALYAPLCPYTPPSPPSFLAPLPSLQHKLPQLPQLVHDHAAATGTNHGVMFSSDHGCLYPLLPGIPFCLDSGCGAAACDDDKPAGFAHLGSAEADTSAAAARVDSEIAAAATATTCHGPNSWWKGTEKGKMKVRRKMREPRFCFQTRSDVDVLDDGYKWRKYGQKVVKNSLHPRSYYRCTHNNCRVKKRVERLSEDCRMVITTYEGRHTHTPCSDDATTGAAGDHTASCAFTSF

Target: OsWRKY34 (Oryza sativa, UniProt Q0JBA9 1-250)
Assay: protein-binding microarray (RPBM); PBS, 2% BSA, 51.3 ng/ul salmon testes DNA, 50 uM zinc acetate, 200 nM TF, 25 C, 1 h; high values mean tight binding
Conditions: protein: recombinant; tags: N-terminal polyhistidine and DsRed monomer fusion (pET32a); label: CyDye5-dUTP incorporated in the synthesized complementary strand; 3' TTTTT single-stranded linker to array surface; dsDNA, one strand shown
In short: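 Transcription factors were each fused at the N-terminus to a polyhistidine tag plus DsRed and expressed in E. coli BL21-CodonPlus before Ni–NTA purification. Binding to a double-stranded custom Agilent array was carried out with 200 nM protein at 25 °C for 1 h in PBS, 2% BSA, salmon testes DNA and 50 µM zinc acetate. The binding signal is per-feature fluorescence intensity, in arbitrary units, on an Axon 4000B scanner.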

Sequence	binding signal
GTGCAGGACTGTTTTACATACTCCACATACTTTGCCATTACGGAGTCACCTAGTGCAG	10000 fluorescence intensity (a.u.)
AATTTGCACAGTCGATTGTTTAGCCTGACACGAGTCTTCACGGAGTCACCTAGTGCAG	9640 fluorescence intensity (a.u.)
ACACTTGGCATTAATCTAATTTAACTTTTTTTTCTTTATCCGGAGTCACCTAGTGCAG	8440 fluorescence intensity (a.u.)
GCCTGCGCCTGCGCCGCCGGCGACCTCCATCCCGTCCCCGCGGAGTCACCTAGTGCAG	10300 fluorescence intensity (a.u.)
ACCACACACGGCGCACACACACGCGTACGCTACCACCAAACGGAGTCACCTAGTGCAG	8420 fluorescence intensity (a.u.)
CCTCGGTGTGCTTTGGGTGTTCGTCCGTGTTCTTGCCTTTCGGAGTCACCTAGTGCAG	8060 fluorescence intensity (a.u.)
GATAAGTGGCACGTGGGGATAGGGGAAATTCTCGCGAAAACGGAGTCACCTAGTGCAG	8200 fluorescence intensity (a.u.)
TTTTTTTCCCTTGTACCATTAGAACATGGCCATGCCACATCGGAGTCACCTAGTGCAG	8030 fluorescence intensity (a.u.)
TGATGTTCTTTTATTTTGTTTTTCTTTGCCAAATCTTAAACGGAGTCACCTAGTGCAG	8370 fluorescence intensity (a.u.)
TTTTTTCAGCATGTCTTGTTAAATTTTATCTCGTAGAGGTCGGAGTCACCTAGTGCAG	8660 fluorescence intensity (a.u.)
AATATATACGCCACGTGAACCACACCTTCTGTACGAAATTCGGAGTCACCTAGTGCAG	9770 fluorescence intensity (a.u.)
GGCGGCGGGGTGGGACGACGAAGAGCAGCAGCTCCTTGGACGGAGTCACCTAGTGCAG	9350 fluorescence intensity (a.u.)
TTGGGGTTGGCGGGAATTAGGGTTTCGTTGGTGGGGTTTTCGGAGTCACCTAGTGCAG	25900 fluorescence intensity (a.u.)
ATACCCCTACCAACGTATCCATTTTGATAATTCATACTCTCGGAGTCACCTAGTGCAG	9450 fluorescence intensity (a.u.)
CTTTGTTTCATGTGCACATCAGTAGCCATTGCTAAATATGCGGAGTCACCTAGTGCAG	10200 fluorescence intensity (a.u.)
CCTTTTCCTACCTCGCCTCGCCGCCCGCACCGAGCAAACTCGGAGTCACCTAGTGCAG	9550 fluorescence intensity (a.u.)
GAGTCGTCGCGGTCACTCGTCCGTATCTGCCTCGGTGGGGCGGAGTCACCTAGTGCAG	11600 fluorescence intensity (a.u.)
TCCTTTATTTTATTTTGTCTAAGCAAATCTCAGCCATCCGCGGAGTCACCTAGTGCAG	8370 fluorescence intensity (a.u.)
AATCAAGACACACTTTACGCTGGGCTTGGGCTGTTTTTACCGGAGTCACCTAGTGCAG	9100 fluorescence intensity (a.u.)
CTACCTAGGGTTTCTCGCCGCCTCGCATCCCCTCCTCCTCCGGAGTCACCTAGTGCAG	8790 fluorescence intensity (a.u.)
TTCGGCCCCACTCATATCAAGATGCGCCACTGGTTGACCTCGGAGTCACCTAGTGCAG	8040 fluorescence intensity (a.u.)

Sequence	binding signal
CCCGGCCACGTTTTCCTCACGCTCGCGCGCGCGCGCAACCCGGAGTCACCTAGTGCAG	8760 fluorescence intensity (a.u.)
CAATGTAAGTCATTCTAGCATTTCCCACATTCGTATTGATCGGAGTCACCTAGTGCAG	8730 fluorescence intensity (a.u.)
GTGCGAGCTGCGCCCGTGTGATGTGGGCGGGTGGGTGTTCCGGAGTCACCTAGTGCAG	16900 fluorescence intensity (a.u.)
TATATCTGCCTCTACCATCCATGCATGCAAGTTTCATCAACGGAGTCACCTAGTGCAG	8030 fluorescence intensity (a.u.)
TGGCAAGCTGGCAATCTGGCAGGCCCGGTCAAAGTTTGACCGGAGTCACCTAGTGCAG	14200 fluorescence intensity (a.u.)
AACACCACATCTCTCCATCTGATCGATCACCCGATCGCATCGGAGTCACCTAGTGCAG	8830 fluorescence intensity (a.u.)
GGACCACATGTATGTTGGCTTCTCTTCATCGTCGTCAGCGCGGAGTCACCTAGTGCAG	8780 fluorescence intensity (a.u.)
CCCTCGCGCTCTTCCATGTCCTGCCCATCTCCTGCCGCACCGGAGTCACCTAGTGCAG	11300 fluorescence intensity (a.u.)
CTCCATCCTCATCACGCATCTTCTTGCCATCCCGTCGCTCCGGAGTCACCTAGTGCAG	8660 fluorescence intensity (a.u.)
TTTTGTCTCTTTCTGCTGCTGGAGTAGTATTGTTCATTTACGGAGTCACCTAGTGCAG	9050 fluorescence intensity (a.u.)
ACCGTAACTGATAACTCTTCGTCCCATTTTAAATACAGCCCGGAGTCACCTAGTGCAG	9070 fluorescence intensity (a.u.)
AAGGCTGATCAATTTTTATCACCTTCGTTTTGTAATATACCGGAGTCACCTAGTGCAG	8440 fluorescence intensity (a.u.)
TTTACCTTTTACGTGTAGGATCCACTTTTACCTTCCATTCCGGAGTCACCTAGTGCAG	8280 fluorescence intensity (a.u.)
CTTCCTCGATCTGTTCTAGAGTTGTCCTCCAGCTGAGTTCCGGAGTCACCTAGTGCAG	9140 fluorescence intensity (a.u.)
TTCTTCGCTTGTCTCCAAGCTGTGTACTCTACTCCTCTGACGGAGTCACCTAGTGCAG	10000 fluorescence intensity (a.u.)
CCCGTCTCCTATAAGAGCCCATCTACACCGCCACCCACCCCGGAGTCACCTAGTGCAG	9400 fluorescence intensity (a.u.)
TCGTATATTCCACCTAATTCTGCAGTACTCTTTCTTGCCCCGGAGTCACCTAGTGCAG	9380 fluorescence intensity (a.u.)
AATATCTATAATTCTGTGAGATTTACTTTTTTTCCTTTCTCGGAGTCACCTAGTGCAG	8800 fluorescence intensity (a.u.)
TCGTGTACTTTGCACTTGCCAATTCCATTCCATTATTATACGGAGTCACCTAGTGCAG	8430 fluorescence intensity (a.u.)
GCCGCTCTCTGTCTCTGTCTCGGTCTCGGTCTCCGCCTCCCGGAGTCACCTAGTGCAG	10400 fluorescence intensity (a.u.)
ATGCATACGTGTGTCCCGTCTCTGCCTGCTGCTCTGTTCGCGGAGTCACCTAGTGCAG	11900 fluorescence intensity (a.u.)

Looked up one by one from the entries so far:
Sequence	binding signal
GGACCACATGTATGTTGGCTTCTCTTCATCGTCGTCAGCGCGGAGTCACCTAGTGCAG	8780 fluorescence intensity (a.u.)
CCCGGCCACGTTTTCCTCACGCTCGCGCGCGCGCGCAACCCGGAGTCACCTAGTGCAG	8760 fluorescence intensity (a.u.)
